Assay results: patent US20230331792A1 (ENLITISA (SHANGHAI) PHARMACEUTICAL CO., LTD., priority 2019, published 2023)
Strings that start with PEPTIDE1 are HELM notation: dots part the residues, brackets hold end groups and non-standard residues.

Test: general procedure: Fmoc solid-phase peptide synthesis; Fmoc-Lys(Boc)-Wang resin; Fmoc-Lys(fmoc)-Wang resin; Fmoc-Orn(fmoc)-Wang resin; Fmoc-Dap(fmoc)-Wang resin; TBTU, DIPEA
Settings: whole synthesis, HPLC, Agilent ZORBAX Eclipse SB-C18, UV at 220 nm (Shimadzu LCMS-8050 / LC-20), acetate

**Q.** Which “crude HPLC purity” value does the source give for “(Ala-Lys-Pro-Ser-DOPA-Hyp-Thr-DOPA-Hyp-Lys)2-Lys” here?
**A.** 66.125%

**Q.** With “(Ala-Lys-Pro-Ser-Tyr-Hyp-Hyp-Thr-DOPA-Lys)2” as the substance, how does the “final HPLC purity” value read?
**A.** 98%

**Q.** Which “crude HPLC purity” value does the source give for “(Ala-Lys-Pro-Ser-Tyr-Hyp-Hyp-Thr-DOPA-Lys)2-Lys” here?
**A.** 68.985%

**Q.** For “(Ala-Lys-Pro-Ser-Tyr-Hyp-Hyp-Thr-Tyr-Lys)2-Lys”, which “crude HPLC purity” value is on record?
**A.** 67.392%

**Q.** Which “crude HPLC purity” value does the source give for “(Ala-Lys-Pro-Ser-Tyr-Hyp-Thr-DOPA-Hyp-Lys)2-Lys” here?
**A.** 68.319%

**Q.** Which “crude HPLC purity” value does the source give for “(Ala-Lys-Pro-Ser-Tyr-Hyp-Thr-Tyr-Hyp-Lys)2-Lys” here?
**A.** 69.176%

**Q.** With “(DOPA-Ala-Lys-Pro-Ser-DOPA-Hyp-Thr-DOPA-Hyp-Lys)2-Lys” as the substance, how does the “crude HPLC purity” value read?
**A.** 64.934%

**Q.** For “(DOPA-Ala-Lys-Pro-Ser-Tyr-Hyp-Thr-Tyr-Hyp-Lys)2-Lys”, which “crude HPLC purity” value is on record?
**A.** 65.843%

**Q.** Which “crude HPLC purity” value does the source give for “(DOPA-Lys-Pro-Ser-DOPA-Hyp-Hyp-Thr-Ala-Lys)2-Lys” here?
**A.** 65.384%

**Q.** Which “crude HPLC purity” value does the source give for “(HCA-Ala-Lys-Pro-Ser-DOPA-Hyp-Thr-DOPA-Hyp-Lys)2-Lys” here?
**A.** 61.036%

**Q.** With “(HCA-Ala-Lys-Pro-Ser-Tyr-Hyp-Thr-Tyr-Hyp-Lys)2-Lys” as the substance, how does the “crude HPLC purity” value read?
**A.** 62.283%

**Q.** For “(HCA-Lys-Pro-Ser-Tyr-Hyp-Hyp-Thr-Ala-Lys)2-Lys”, which “crude HPLC purity” value is on record?
**A.** 65.457%

**Q.** Which “crude HPLC purity” value does the source give for “(Lys-Ala-Lys-Pro-Ser-DOPA-Hyp-Hyp-Thr-DOPA)2-Lys” here?
**A.** 61.252%

**Q.** With “PEPTIDE1{A.K.P.S.[DOPA].[Hyp].T.[DOPA].[Hyp].K.K.K}|PEPTIDE2{A.K.P.S.[DOPA].[Hyp].T.[DOPA].[Hyp].K}|PEPTIDE3{A.K.P.S.[DOPA].[Hyp].T.[DOPA].[Hyp].K.K}|PEPTIDE4{A.K.P.S.[DOPA].[Hyp].T.[DOPA].[Hyp].K}$PEPTIDE2,PEPTIDE1,10:R2-11:R3|PEPTIDE3,PEPTIDE1,11:R2-12:R3|PEPTIDE4,PEPTIDE3,10:R2-11:R3$$$V2.0” as the substance, how does the “crude HPLC purity” value read?
**A.** 52.165%

**Q.** With “[(Ala-Lys-Pro-Ser-DOPA-Hyp-Hyp-Thr-DOPA-Lys)2-Lys]2-Lys” as the substance, how does the “crude HPLC purity” value read?
**A.** 52.553%

**Q.** Which “crude HPLC purity” value does the source give for “[(Ala-Lys-Pro-Ser-Tyr-Hyp-Hyp-Thr-DOPA-Lys)2-Lys]2-Lys” here?
**A.** 52.126%

**Q.** With “[(Ala-Lys-Pro-Ser-Tyr-Hyp-Hyp-Thr-Tyr-Lys)2-Lys]2-Lys” as the substance, how does the “crude HPLC purity” value read?
**A.** 51.071%

**Q.** Which “crude HPLC purity” value does the source give for “[(Ala-Lys-Pro-Ser-Tyr-Hyp-Thr-DOPA-Hyp-Lys)2-Lys]2-Lys” here?
**A.** 52.194%

**Q.** With “[(Ala-Lys-Pro-Ser-Tyr-Hyp-Thr-Tyr-Hyp-Lys)2-Lys]2-Lys” as the substance, how does the “crude HPLC purity” value read?
**A.** 50.944%

**Q.** With “[(DOPA-Ala-Lys-Pro-Ser-DOPA-Hyp-Thr-DOPA-Hyp-Lys)2-Lys]2-Lys” as the substance, how does the “crude HPLC purity” value read?
**A.** 50.137%

**Q.** For “[(DOPA-Ala-Lys-Pro-Ser-Tyr-Hyp-Thr-Tyr-Hyp-Lys)2-Lys]2-Lys”, which “crude HPLC purity” value is on record?
**A.** 50.058%

**Q.** With “[(DOPA-Lys-Pro-Ser-DOPA-Hyp-Thr-Ala-Hyp-Lys)2-Lys]2-Lys” as the substance, how does the “crude HPLC purity” value read?
**A.** 50.576%

**Q.** With “[(HCA-Ala-Lys-Pro-Ser-Tyr-Hyp-Hyp-Thr-Tyr-Lys)2-Lys]2-Lys” as the substance, how does the “crude HPLC purity” value read?
**A.** 49.033%

**Q.** Which “crude HPLC purity” value does the source give for “[(HCA-Ala-Lys-Pro-Ser-Tyr-Hyp-Thr-Tyr-Hyp-Lys)2-Lys]2-Lys” here?
**A.** 48.274%

**Q.** For “[(HCA-Lys-Pro-Ser-DOPA-Hyp-Thr-Ala-Hyp-Lys)2-Lys]2-Lys”, which “crude HPLC purity” value is on record?
**A.** 53.853%

**Q.** With “[(Lys-Ala-Lys-Hyp-Ser-DOPA-Hyp-Hyp-Thr-DOPA)2-Lys]2-Lys” as the substance, how does the “crude HPLC purity” value read?
**A.** 50.577%

**Q.** With “[(Lys-Ala-Lys-Pro-Ser-Tyr-Hyp-Hyp-Thr-Tyr)2-Lys]2-Lys” as the substance, how does the “crude HPLC purity” value read?
**A.** 49.642%

**Q.** Which “crude HPLC purity” value does the source give for “{[(Ala-Lys-Pro-Ser-DOPA-Hyp-Thr-DOPA-Hyp-Lys)2-Lys]2-Lys}2-Lys” here?
**A.** 30.234%

**Q.** With “{[(Ala-Lys-Pro-Ser-Tyr-Hyp-Hyp-Thr-DOPA-Lys)2-Lys]2-Lys}2-Lys” as the substance, how does the “crude HPLC purity” value read?
**A.** 30.423%

**Q.** For “{[(Ala-Lys-Pro-Ser-Tyr-Hyp-Hyp-Thr-Tyr-Lys)2-Lys]2-Lys}2-Lys”, which “crude HPLC purity” value is on record?
**A.** 31.129%

**Q.** For “{[(Ala-Lys-Pro-Ser-Tyr-Hyp-Thr-DOPA-Hyp-Lys)2-Lys]2-Lys}2-Lys”, which “crude HPLC purity” value is on record?
**A.** 30.638%

**Q.** With “{[(Ala-Lys-Pro-Ser-Tyr-Hyp-Thr-Tyr-Hyp-Lys)2-Lys]2-Lys}2-Lys” as the substance, how does the “crude HPLC purity” value read?
**A.** 30.586%

**Q.** With “{[(DOPA-Ala-Lys-Pro-Ser-DOPA-Hyp-Thr-DOPA-Hyp-Lys)2-Lys]2-Lys}2-Lys” as the substance, how does the “crude HPLC purity” value read?
**A.** 28.957%

**Q.** For “{[(DOPA-Ala-Lys-Pro-Ser-Tyr-Hyp-Thr-Tyr-Hyp-Lys)2-Lys]2-Lys}2-Lys”, which “crude HPLC purity” value is on record?
**A.** 29.398%

**Q.** With “{[(HCA-Ala-Lys-Pro-Ser-Tyr-Hyp-Thr-Tyr-Hyp-Lys)2-Lys]2-Lys}2-Lys” as the substance, how does the “crude HPLC purity” value read?
**A.** 28.821%

Same assay, conditions: whole synthesis, UV 220 nm, acetate

**Q.** For “(Ala-Lys-Pro-Ser-Tyr-Hyp-Hyp-Thr-DOPA-Lys)2”, which “crude HPLC purity” value is on record?
**A.** 60.345%
